Measured values as given in paper PMC4762897.

By UniProt entry, the sequences of proteins in these tests, tags left out. Where a name states a change or a piece, a line headed by the entry shows the natural chain unless it says otherwise.
UniProt Q00899: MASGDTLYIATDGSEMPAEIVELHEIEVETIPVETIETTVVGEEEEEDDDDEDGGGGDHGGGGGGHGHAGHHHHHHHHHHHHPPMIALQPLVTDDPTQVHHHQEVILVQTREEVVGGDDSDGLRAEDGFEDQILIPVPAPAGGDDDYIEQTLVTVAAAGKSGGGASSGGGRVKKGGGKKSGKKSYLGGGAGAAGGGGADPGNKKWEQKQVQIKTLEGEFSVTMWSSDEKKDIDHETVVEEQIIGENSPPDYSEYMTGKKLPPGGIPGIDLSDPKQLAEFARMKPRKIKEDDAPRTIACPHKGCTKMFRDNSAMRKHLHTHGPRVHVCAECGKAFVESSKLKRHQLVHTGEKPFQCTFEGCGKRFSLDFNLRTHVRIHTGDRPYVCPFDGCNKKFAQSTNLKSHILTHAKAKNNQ
UniProt Q8BUN5: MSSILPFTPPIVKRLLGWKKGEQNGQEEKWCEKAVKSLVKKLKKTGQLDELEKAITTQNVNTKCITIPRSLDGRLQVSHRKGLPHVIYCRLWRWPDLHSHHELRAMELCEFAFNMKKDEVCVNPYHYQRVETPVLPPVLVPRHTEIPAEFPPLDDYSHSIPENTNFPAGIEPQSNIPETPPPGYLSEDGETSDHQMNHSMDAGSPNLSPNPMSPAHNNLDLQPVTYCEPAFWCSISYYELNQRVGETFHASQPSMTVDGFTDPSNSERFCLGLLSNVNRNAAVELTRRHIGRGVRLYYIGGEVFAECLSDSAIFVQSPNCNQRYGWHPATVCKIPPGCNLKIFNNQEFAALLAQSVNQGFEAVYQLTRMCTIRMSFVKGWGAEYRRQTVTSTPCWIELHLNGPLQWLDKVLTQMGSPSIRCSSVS
UniProt P97471: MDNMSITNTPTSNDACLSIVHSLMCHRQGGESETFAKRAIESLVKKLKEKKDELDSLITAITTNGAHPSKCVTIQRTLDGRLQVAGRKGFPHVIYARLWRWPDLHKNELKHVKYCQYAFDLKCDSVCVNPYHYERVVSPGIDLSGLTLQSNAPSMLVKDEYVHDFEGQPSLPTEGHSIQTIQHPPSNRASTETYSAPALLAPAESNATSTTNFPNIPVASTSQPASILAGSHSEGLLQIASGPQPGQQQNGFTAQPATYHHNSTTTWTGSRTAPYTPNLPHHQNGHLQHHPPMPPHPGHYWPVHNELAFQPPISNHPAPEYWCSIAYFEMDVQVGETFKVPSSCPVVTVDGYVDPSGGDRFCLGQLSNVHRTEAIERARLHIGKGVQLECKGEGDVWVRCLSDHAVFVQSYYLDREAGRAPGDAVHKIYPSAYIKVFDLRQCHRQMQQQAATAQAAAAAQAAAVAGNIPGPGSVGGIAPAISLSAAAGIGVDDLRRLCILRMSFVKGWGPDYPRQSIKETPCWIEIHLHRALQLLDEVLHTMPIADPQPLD

B1: Foxp3 (protein, UniProt Q99JB6 1-417)
chain: MPNPRPAKPMAPSLALGPSPGVLPSWKTAPKGSELLGTRGSGGPFQGRDLRSGAHTSSSLNPLPPSQLQLPTVPLVMVAPSGARLGPSPHLQALLQDRPHFMHQLSTVDAHAQTPVLQVRPLDNPAMISLPPPSAATGVFSLKARPGLPPGINVASLEWVSREPALLCTFPRSGTPRKDSNLLAAPQGSYPLLANGVCKWPGCEKVFEEPEEFLKHCQADHLLDEKGKAQCLLQREVVQSLEQQLELEKEKLGAMQAHLAGKMALAKAPSVASMDKSSCCIVATSTQGSVLPAWSAPREAPDGGLFAVRRHLWGSHGNSSFPEFFHNMDYFKYHNMRPPFTYATLIRWAILEAPERQRTLNEIYHWFTRMFAYFRNHPATWKNAIRHNLSLHKCFVRVESEKGAVWTVDEFEFRKKR

The molecules below were run against YY1 deletion mutant lacking the spacer domain (mouse) (UniProt Q00899) (assay: co-IP; HEK293T transfected with Smad3-, Smad4- or Foxp3-expression vector together with FLAG-tagged YY1 or YY1 domain mutants; lysates immunoprecipitated with anti-FLAG; immunoblot with anti-Smad3, anti-Smad4, anti-Foxp3 or anti-FLAG).

Row | binding | Molecule
1 | no binding | Smad3 (from UniProt Q8BUN5 1-425)
2 | no binding | Smad4 (from UniProt P97471 1-551)
3 | no binding | B1

Results are given in words; binding and its absence hold for the method and conditions named. In cells and extracts the contact can be indirect.
